Experimental data as given in PubChem BioAssay (NCATS).
Values joined by “and” are separate entries in the source; they are usually repeats but may differ in a detail not shown here. Equal entries are not always repeated. These results got no clear call from the source, so the numbers are uncertain. Calls follow the shape of the dose curve; as a rule, active = well fitted curve in the direction sought with a large enough effect; inconclusive = small, poorly fitted or top-dose-only effect, or another doubt; inactive = no such curve, though single readings can be large; an effect the other way counts as inactive or inconclusive.

Columns and labels:
[1] = Viability qHTS for spleen associated tyrosine kinase inhibitor (SYKi) naive MV4-11 cells (AID 1963823); settings: MV4-11 AML viability, CellTiter-Glo luminescence, 72 h; also: nearly all actives have a fitted effect of over 40% in size
From the text: (§1) Department of Medicine, Hematology/Oncology
(§2) University Hospital Frankfurt, Germany.
(§3) Trials have shown promising clinical activity of the selective SYK inhibitor entospletinib in patients with high expressing HOXA9/MEIS1 acute leukemias. As the development of resistance mechanisms is a common problem in the use of targeted drugs, we performed a chemical library screen to identify drug sensitivities in SYK inhibitor resistant AML cells. […] Glucocorticoids are potent immunosuppressants which work in part by inhibiting the transcription of cytokine genes.
Described herein is a viability screen to look for activity in the SYK inhibitor naive cell line against four NCATS compound libraries (MIPE 5.0, NPC, NPACT, and Kinase) totaling 11372 compounds. Active hits were reacquired for confirmation and further secondary assay testing.
(§4) SEQUENCE No. (e.g., 1, 2, 3, etc.); […] (e.g., Cells, Incubation, Reagent, etc.); VALUE; DESCRIPTION.
(§5) 1; Media; 2uL; white, solid-bottom Corning assay plate.
2; Compounds; 23nL; Echo acoustic dispenser.
3; Cell; 5uL; 500 cells per well.
4: Incubation; 72hr; 37 C, 5% CO2, 95% humidity.
5; Reagent; 3uL; CellTiter-Glo reagent (Promega).
6; Incubation; 10min; room temperature.
7; Detection; Luminescence; ViewLux plate reader (PerkinElmer).
NOTES (numbers refer to Sequence numbers above
1. Quantitative high-throughput screening (qHTS) of small molecule compounds was conducted on naive SYKi MV4-11 cell line.
2. Twenty-three nanoliter of small molecule compounds were added to each assay plates using the Echo acoustic dispenser (Beckman Coulter).
3. Cells were seeded into the assay plates at a final density of 500 cells in 5uL of media per well using the Multi-drop Combi dispenser.
4. Plates were covered with stainless steel gasketed lids and incubated for 72 hours at standard cell culture conditions.
5. Viability was assessed by adding 3uL of CellTiter-Glo detection reagent (Promega).
6. Plates were covered with gasket lids and incubated for 10 minutes at room temperature.
(§6) 7. Luminescence was measured on a ViewLux plate reader (PerkinElmer).

[2] = Cellular viability qHTS for adrenocortical cancer (ACC) cell line SW-13 (AID 1963989); settings: SW-13 ACC cells viability, CellTiter-Glo, 48 h; also: nearly all actives have a fitted effect of over 65% in size
From the text: (§7) PI: Naris Nilubol, MD Surgical Oncology Program, National Cancer Institute (NCI) National Institute of Health (NIH), Bethesda, Maryland Adrenocortical cancer (ACC) is a rare malignancy with poor survival outcomes and few treatment options. Currently, mitotane is the only FDA-approved therapy for ACC. Although adjuvant radiation therapy is rarely utilized, it has the potential to improve survival in select cases. Through a quantitative high-throughput drug screen (qHTS), we identified auranofin (AF), a thioredoxin reductase (TXNRD) inhibitor, as a promising candidate drug. This study aims to evaluate whether AF can enhance the efficacy of radiation therapy in the treatment of ACC. Two human ACC cell lines, SW-13 and NCI-H295R, were screened using the National Center for Advancing Translational Sciences (NCATS) Pharmaceutical Collection (NPC) and the Mechanism Interrogation PlatE (MIPE) library (~4,991 compounds). […]
(§8) PROTOCOL TABLE (as described by Inglese J, Shamu CE and Guy RK. 2007) SEQUENCE No. (e.g., 1, 2, 3, etc.); […] […] 7; Detection; Luminescence; ViewLux plate reader NOTES (numbers refer to Sequence numbers above) 1. […] After incubation, luminescence was measured using a ViewLux plate reader (PerkinElmer, Waltham, MA, USA) with a clear filter was used to measure the number of metabolically competent cells. […]

[3] = Cellular viability qHTS for adrenocortical cancer (ACC) cell line NCI-H295R (AID 1963990); settings: CellTiter-Glo ATP luminescence, 48 h; also: nearly all actives have a fitted effect of over 60% in size
From the text: as §7, §8

[4] = Viability qHTS for spleen associated tyrosine kinase inhibitor (SYKi) drug resistant MV4-11 cells (AID 1963824); settings: SYKi-resistant MV4-11 viability, CellTiter-Glo, 72 h; also: nearly all actives have a fitted effect of over 35% in size
From the text: as §1, §2, §3
Described herein is a viability screen to look for activity in the SYK inhibitor drug resistant cell line against four NCATS compound libraries (MIPE 5.0, NPC, NPACT, and Kinase) totaling 11372 compounds. Active hits were reacquired for confirmation and further secondary assay testing.
as §4, §5
2; Compounds; 23nL; Echo acoustic dispenser. […]
7; Detection; Luminescence; ViewLux plate reader (PerkinElmer). […]
1. Quantitative high-throughput screening (qHTS) of small molecule compounds was conducted on drug resistant SYKi MV4-11 cell line. […]
5. Viability was assessed by adding 3uL of CellTiter-Glo detection reagent (Promega). […]
as §6
Potency is read from the fitted curve at half-maximal effect.

SMILES	Potency [1]	Potency [2]	Potency [3]	Potency [4]
CCC(=O)N(c1ccccc1)C1(COC)CCN(CCc2cccs2)CC1	inconclusive: 34.4 µM	inconclusive: 39.8 µM	inconclusive: 56.2 µM	
CN(CCCl)CCCl	inconclusive: 2.99 µM and inconclusive: 9.34 µM		inconclusive: 23.1 µM and inconclusive: 35.5 µM	inconclusive: 13.3 µM
Cc1cc([N+](=O)[O-])cc([N+](=O)[O-])c1O	inconclusive: 68.6 µM	inconclusive: 31.6 µM		
CCC(=O)N(c1ccccc1)C1(COC)CCN(CCn2nnn(CC)c2=O)CC1	inconclusive: 23.8 µM			inconclusive: 21.2 µM
